Measured values: the supplement of paper PMC10849652
The other results are listed elsewhere or left out.

By UniProt entry, the sequences of proteins in these tests, tags left out. Where a name states a change or a piece, a line headed by the entry shows the natural chain unless it says otherwise.
UniProt P78318: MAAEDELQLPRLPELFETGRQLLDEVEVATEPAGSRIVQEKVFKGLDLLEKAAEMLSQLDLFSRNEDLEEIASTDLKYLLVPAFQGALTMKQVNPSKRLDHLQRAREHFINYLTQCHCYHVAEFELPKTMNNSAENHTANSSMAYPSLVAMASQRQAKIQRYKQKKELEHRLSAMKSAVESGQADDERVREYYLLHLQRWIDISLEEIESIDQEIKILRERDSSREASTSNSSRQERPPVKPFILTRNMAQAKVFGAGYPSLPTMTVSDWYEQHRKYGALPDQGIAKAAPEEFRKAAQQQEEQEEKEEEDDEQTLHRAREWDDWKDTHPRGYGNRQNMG
UniProt P50213: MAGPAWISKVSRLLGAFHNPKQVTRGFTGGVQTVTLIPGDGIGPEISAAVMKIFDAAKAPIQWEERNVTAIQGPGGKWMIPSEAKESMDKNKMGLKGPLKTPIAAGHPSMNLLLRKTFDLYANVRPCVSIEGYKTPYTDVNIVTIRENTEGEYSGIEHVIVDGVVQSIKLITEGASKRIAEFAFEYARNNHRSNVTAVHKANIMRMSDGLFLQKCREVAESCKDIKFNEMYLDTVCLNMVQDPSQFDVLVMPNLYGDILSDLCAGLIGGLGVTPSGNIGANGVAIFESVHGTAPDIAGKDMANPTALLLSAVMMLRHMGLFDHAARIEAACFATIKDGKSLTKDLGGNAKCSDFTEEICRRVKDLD
UniProt P22692: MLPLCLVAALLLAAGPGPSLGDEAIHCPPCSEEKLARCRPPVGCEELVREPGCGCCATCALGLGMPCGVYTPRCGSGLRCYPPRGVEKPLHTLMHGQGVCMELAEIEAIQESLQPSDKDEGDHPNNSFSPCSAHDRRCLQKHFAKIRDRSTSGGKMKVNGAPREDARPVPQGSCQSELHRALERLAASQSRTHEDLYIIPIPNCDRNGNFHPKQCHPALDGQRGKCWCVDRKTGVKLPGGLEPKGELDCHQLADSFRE
UniProt Q13907: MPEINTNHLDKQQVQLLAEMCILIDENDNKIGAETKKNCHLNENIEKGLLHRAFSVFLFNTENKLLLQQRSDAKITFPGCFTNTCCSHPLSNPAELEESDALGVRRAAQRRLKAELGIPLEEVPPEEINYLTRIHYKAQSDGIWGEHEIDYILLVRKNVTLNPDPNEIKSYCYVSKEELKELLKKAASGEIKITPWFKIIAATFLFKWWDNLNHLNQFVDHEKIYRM
UniProt Q9P2H3, whole entry, looked up: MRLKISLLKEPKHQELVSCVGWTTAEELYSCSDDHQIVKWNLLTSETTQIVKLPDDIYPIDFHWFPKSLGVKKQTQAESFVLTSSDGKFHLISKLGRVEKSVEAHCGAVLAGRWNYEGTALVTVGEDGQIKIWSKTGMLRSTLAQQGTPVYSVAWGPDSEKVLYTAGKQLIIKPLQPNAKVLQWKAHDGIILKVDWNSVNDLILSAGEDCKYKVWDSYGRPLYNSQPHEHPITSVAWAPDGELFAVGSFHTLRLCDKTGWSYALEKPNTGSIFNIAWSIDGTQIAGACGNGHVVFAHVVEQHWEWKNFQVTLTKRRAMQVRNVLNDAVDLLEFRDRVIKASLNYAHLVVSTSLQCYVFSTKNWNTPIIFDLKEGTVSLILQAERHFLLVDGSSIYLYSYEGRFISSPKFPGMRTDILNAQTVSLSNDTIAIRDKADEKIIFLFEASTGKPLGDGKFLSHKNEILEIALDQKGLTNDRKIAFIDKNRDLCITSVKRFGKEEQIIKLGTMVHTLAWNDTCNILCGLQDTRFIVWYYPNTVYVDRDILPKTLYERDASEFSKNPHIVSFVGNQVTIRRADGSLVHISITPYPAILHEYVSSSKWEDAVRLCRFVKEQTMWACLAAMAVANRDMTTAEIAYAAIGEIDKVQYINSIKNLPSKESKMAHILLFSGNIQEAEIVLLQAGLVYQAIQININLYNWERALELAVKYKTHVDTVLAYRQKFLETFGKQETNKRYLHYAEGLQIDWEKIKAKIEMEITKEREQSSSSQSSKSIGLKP
UniProt Q9H1B7, whole entry, looked up: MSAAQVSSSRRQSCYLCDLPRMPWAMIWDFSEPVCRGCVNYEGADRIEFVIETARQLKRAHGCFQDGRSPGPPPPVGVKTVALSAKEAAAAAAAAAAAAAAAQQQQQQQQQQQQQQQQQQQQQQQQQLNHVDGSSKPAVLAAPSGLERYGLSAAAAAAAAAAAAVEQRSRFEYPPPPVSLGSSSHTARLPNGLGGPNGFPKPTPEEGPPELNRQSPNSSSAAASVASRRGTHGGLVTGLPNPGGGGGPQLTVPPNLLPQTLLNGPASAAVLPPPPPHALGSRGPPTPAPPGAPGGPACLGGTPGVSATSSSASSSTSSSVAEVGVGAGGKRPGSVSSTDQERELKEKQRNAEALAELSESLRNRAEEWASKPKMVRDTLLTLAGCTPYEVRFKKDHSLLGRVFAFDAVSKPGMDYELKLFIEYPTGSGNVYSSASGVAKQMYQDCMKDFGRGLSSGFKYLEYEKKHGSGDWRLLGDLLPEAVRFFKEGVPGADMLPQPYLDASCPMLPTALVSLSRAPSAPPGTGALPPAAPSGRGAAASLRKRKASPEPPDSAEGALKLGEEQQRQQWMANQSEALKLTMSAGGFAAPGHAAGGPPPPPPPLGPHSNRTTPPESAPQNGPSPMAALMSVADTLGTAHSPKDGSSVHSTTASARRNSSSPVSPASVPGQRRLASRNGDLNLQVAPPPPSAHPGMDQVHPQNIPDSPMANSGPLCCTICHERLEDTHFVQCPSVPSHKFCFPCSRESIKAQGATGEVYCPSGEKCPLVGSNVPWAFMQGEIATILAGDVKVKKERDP
UniProt Q9UK53: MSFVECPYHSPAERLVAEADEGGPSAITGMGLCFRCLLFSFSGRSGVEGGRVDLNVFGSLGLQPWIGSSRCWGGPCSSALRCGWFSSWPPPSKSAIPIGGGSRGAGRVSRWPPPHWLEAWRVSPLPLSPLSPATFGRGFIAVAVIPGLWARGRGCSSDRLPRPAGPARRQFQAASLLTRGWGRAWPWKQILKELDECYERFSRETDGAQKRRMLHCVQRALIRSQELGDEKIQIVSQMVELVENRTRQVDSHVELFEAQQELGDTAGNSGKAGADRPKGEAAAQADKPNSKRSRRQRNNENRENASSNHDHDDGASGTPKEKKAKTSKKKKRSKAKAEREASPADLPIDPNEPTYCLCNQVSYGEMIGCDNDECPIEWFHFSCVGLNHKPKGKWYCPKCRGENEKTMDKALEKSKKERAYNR
UniProt Q9H0C8: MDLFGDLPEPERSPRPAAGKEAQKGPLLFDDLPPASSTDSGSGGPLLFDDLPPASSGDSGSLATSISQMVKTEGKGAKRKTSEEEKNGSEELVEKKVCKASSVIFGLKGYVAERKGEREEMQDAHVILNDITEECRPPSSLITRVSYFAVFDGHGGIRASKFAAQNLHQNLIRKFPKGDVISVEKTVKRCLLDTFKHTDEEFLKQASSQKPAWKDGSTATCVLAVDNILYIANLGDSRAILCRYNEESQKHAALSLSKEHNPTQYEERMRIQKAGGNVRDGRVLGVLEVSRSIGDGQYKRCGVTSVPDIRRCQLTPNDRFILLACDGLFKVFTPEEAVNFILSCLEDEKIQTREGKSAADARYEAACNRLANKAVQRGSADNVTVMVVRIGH
UniProt Q13418: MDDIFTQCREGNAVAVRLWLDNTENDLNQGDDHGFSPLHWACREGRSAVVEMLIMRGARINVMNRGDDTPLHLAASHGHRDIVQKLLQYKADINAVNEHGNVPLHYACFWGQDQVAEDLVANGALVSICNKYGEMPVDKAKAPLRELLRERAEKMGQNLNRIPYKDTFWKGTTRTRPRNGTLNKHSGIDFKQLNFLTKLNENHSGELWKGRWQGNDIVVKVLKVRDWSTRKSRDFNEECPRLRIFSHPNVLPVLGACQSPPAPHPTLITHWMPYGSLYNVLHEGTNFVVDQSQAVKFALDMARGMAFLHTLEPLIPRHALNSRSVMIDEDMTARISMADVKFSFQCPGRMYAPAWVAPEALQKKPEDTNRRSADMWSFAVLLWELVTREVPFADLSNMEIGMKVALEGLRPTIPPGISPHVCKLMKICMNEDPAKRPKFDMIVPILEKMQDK
UniProt Q9Y287, whole entry, looked up: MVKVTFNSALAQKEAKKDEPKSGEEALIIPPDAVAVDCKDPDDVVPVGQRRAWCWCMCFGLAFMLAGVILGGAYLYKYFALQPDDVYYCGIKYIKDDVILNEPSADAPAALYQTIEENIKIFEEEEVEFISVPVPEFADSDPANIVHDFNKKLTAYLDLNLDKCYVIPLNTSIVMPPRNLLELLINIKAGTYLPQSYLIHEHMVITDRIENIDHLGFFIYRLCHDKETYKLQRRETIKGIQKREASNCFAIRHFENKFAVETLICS
UniProt Q9NWZ3, whole entry, looked up: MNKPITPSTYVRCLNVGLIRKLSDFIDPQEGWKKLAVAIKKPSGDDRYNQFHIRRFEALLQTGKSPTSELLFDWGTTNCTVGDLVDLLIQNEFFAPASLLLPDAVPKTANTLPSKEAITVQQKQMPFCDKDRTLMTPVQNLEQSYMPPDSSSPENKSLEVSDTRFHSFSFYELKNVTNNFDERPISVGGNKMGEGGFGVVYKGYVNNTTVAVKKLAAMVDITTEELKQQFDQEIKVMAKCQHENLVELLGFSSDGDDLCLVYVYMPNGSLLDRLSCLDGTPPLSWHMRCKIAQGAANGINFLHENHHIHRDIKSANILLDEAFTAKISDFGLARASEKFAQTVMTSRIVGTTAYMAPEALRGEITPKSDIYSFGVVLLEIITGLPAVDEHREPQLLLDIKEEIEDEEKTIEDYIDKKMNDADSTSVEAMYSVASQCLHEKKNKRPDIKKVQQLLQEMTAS
UniProt Q13123, whole entry, looked up: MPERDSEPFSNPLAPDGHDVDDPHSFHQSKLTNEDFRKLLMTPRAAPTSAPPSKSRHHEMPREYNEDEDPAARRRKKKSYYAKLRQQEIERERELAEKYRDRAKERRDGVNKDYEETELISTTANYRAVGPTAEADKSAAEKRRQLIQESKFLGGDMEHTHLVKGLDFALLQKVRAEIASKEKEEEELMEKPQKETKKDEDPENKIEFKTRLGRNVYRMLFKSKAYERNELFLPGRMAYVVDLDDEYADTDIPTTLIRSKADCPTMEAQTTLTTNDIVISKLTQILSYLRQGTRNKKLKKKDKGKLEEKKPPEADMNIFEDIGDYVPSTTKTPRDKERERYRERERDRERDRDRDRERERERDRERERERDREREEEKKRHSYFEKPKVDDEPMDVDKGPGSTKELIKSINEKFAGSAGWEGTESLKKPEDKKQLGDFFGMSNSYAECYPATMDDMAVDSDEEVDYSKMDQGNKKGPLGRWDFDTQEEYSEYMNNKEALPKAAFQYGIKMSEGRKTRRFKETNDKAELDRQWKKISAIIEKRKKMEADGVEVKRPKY
UniProt Q27J81, whole entry, looked up: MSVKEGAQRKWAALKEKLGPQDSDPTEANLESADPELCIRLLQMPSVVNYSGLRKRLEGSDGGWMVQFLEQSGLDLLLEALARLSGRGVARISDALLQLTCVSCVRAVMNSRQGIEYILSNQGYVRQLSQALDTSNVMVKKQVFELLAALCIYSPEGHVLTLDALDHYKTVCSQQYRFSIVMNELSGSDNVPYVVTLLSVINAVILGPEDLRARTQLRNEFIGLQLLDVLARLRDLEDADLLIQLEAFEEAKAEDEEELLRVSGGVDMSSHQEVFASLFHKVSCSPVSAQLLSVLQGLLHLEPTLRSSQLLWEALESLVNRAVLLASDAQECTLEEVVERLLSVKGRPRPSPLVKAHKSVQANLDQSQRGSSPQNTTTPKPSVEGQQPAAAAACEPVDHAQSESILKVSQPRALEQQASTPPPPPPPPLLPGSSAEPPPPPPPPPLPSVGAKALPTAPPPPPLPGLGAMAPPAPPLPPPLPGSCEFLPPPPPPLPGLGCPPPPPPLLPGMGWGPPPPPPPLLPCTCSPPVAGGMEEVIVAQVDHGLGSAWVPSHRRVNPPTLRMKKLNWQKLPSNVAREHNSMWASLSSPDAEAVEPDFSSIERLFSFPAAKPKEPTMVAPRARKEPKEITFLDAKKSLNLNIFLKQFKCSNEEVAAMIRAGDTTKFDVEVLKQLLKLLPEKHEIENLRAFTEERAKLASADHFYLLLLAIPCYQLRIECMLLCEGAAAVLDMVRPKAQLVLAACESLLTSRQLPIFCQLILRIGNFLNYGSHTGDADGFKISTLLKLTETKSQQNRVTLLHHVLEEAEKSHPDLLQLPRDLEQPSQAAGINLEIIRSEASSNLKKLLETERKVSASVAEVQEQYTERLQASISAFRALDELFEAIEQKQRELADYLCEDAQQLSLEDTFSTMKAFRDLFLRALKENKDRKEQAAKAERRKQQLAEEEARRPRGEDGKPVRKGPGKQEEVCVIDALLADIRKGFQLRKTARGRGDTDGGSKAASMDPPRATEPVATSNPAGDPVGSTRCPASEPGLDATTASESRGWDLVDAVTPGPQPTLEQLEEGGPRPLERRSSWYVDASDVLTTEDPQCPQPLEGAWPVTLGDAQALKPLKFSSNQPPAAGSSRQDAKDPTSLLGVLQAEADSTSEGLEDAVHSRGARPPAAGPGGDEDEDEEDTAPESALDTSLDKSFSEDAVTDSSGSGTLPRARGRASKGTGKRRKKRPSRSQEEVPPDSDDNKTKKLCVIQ

Key:
Experiment in all cases: log2 fold change, soluble protein after heating vs DMSO (PISA); higher = thermal stabilisation; K562 cells, 10 uM, 30 min; active = over 0.2 and 3.5 SD of the protein, either way, in both replicates (recomputed)
[1] = compound: COC1=CC=C(C=C1)CN2C=CC3=C2C=C(C=C3)C(=O)NO
Outline: (§1)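 K562 cells at 2×10^6 cells/mL were treated for 30 min with 10 μM compound, and aliquots were heated for 3 min over 48°C-58°C before pooling. Extraction used PBS with 0.5% NP-40 at 4°C, and soluble protein was the supernatant after 21,000xg for 90 min, measured by TMTpro 16plex LC-MS/MS with channel sums equalised. Thermal stability values, relative to control samples and from duplicates, are log2 fold changes.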

filanesib = compound: CON(C)C(=O)N1N=C(c2cc(F)ccc2F)S[C@@]1(CCCN)c1ccccc1 [filanesib]
Outline: as §1

zotarolimus = compound: CO[C@H]1C[C@@H]2CC[C@@H](C)[C@@](O)(O2)C(=O)C(=O)N2CCCC[C@H]2C(=O)O[C@H]([C@H](C)C[C@@H]2CC[C@H](n3cnnn3)[C@H](OC)C2)CC(=O)[C@H](C)/C=C(\C)[C@@H](O)[C@@H](OC)C(=O)[C@H](C)C[C@H](C)/C=C/C=C/C=C/1C [zotarolimus]
Outline: as §1

idasanutlin = compound: COc1cc(C(=O)O)ccc1NC(=O)[C@@H]1N[C@@H](CC(C)(C)C)[C@](C#N)(c2ccc(Cl)cc2F)[C@H]1c1cccc(Cl)c1F [idasanutlin]
Outline: as §1

alisertib = compound: COc1cc(Nc2ncc3c(n2)-c2ccc(Cl)cc2C(c2c(F)cccc2OC)=NC3)ccc1C(=O)O [alisertib]
Outline: as §1

[2] = compound: COc1cc2nc(-c3cc(F)ccc3O)nc(N[C@@H]3CNC[C@H]3C(C)(C)O)c2cc1OC
Outline: as §1

gefitinib = compound: COc1cc2ncnc(Nc3ccc(F)c(Cl)c3)c2cc1OCCCN1CCOCC1 [gefitinib]
Outline: as §1

[3] = compound: COc1cccc2cc(-c3nc([C@H]4CC[C@H](C(=O)O)CC4)n4ncnc(N)c34)[nH]c12
Outline: as §1

lapatinib = compound: CS(=O)(=O)CCNCc1ccc(-c2ccc3ncnc(Nc4ccc(OCc5cccc(F)c5)c(Cl)c4)c3c2)o1 [lapatinib]
Outline: as §1

pictilisib = compound: CS(=O)(=O)N1CCN(Cc2cc3nc(-c4cccc5[nH]ncc45)nc(N4CCOCC4)c3s2)CC1 [pictilisib]
Outline: as §1

[4] = compound: CS(=O)(=O)c1ccc(-c2cnc(N)c(C(=O)Nc3ccccc3)n2)cc1
Outline: as §1

crizotinib = compound: C[C@@H](Oc1cc(-c2cnn(C3CCNCC3)c2)cnc1N)c1c(Cl)ccc(F)c1Cl [crizotinib]
Outline: as §1

[5] = compound: C[C@@H]1COCCN1C2=NC(=NC(=C2)C3(CC3)S(=O)(=O)C)C4=C5C=CNC5=CC=C4
Outline: as §1

[6] = compound: C[C@H](C1=CC=C(C=C1)C(=O)NC2=C3C=CNC3=NC=C2)N
Outline: as §1

duvelisib = compound: C[C@H](Nc1ncnc2nc[nH]c12)c1cc2cccc(Cl)c2c(=O)n1-c1ccccc1 [duvelisib]
Outline: as §1

gandotinib = compound: Cc1cc(Nc2cc(CN3CCOCC3)c3nc(C)c(Cc4ccc(Cl)cc4F)n3n2)n[nH]1 [gandotinib]
Outline: as §1

tozasertib = compound: Cc1cc(Nc2cc(N3CCN(C)CC3)nc(Sc3ccc(NC(=O)C4CC4)cc3)n2)n[nH]1 [tozasertib]
Outline: as §1

[7] = compound: Cc1cc(SCc2sc(-c3ccc(C(F)(F)F)cc3)nc2C)ccc1OCC(=O)O
Outline: as §1

doramapimod = compound: Cc1ccc(-n2nc(C(C)(C)C)cc2NC(=O)Nc2ccc(OCCN3CCOCC3)c3ccccc23)cc1 [doramapimod]
Outline: as §1

ispinesib = compound: Cc1ccc(C(=O)N(CCCN)[C@@H](c2nc3cc(Cl)ccc3c(=O)n2Cc2ccccc2)C(C)C)cc1 [ispinesib]
Outline: as §1

Measured: log2 fold change

IGBP1 (UniProt P78318)
inactive: [1] 0.004 | filanesib -0.042 | zotarolimus -0.018 | idasanutlin 0.002 | alisertib -0.014 | [2] -0.071 | gefitinib 0.003 | [3] 0.021 | lapatinib 0.089 | pictilisib 0.063 | [4] -0.012 | crizotinib -0.045 | [5] 0.027 | [6] -0.016 | duvelisib 0.041 | gandotinib -0.055 | tozasertib -0.012 | [7] -0.033 | doramapimod 0 | ispinesib 0.016

IDH3A (UniProt P50213)
inactive: [1] 0 | filanesib -0.067 | zotarolimus 0.007 | idasanutlin -0.074 | alisertib -0.063 | [2] -0.009 | gefitinib 0.039 | [3] 0.022 | lapatinib 0.017 | pictilisib -0.021 | [4] 0.023 | crizotinib 0.006 | [5] 0.07 | [6] -0.046 | gandotinib -0.037 | [7] 0.022 | doramapimod -0.024 | ispinesib 0.013

IGFBP4 (UniProt P22692)
active: idasanutlin 0.392
inactive: [1] -0.075 | filanesib 0.012 | zotarolimus -0.31 | alisertib 0.009 | [2] -0.024 | gefitinib -0.107 | [3] 0.179 | lapatinib -0.036 | pictilisib -0.022 | [4] -0.066 | crizotinib 0.064 | [5] 0.022 | [6] -0.114 | gandotinib -0.229 | [7] -0.007 | doramapimod 0 | ispinesib -0.233

IGF2BP2 (UniProt Q9Y6M1)
active: [6] 0.531
inactive: [1] -0.111 | filanesib 0.301 | zotarolimus 0.104 | idasanutlin 0.136 | alisertib -0.103 | [2] -0.105 | gefitinib 0.007 | [3] -0.113 | lapatinib 0.046 | pictilisib -0.043 | [4] 0.009 | crizotinib -0.062 | [5] -0.186 | gandotinib 0.139 | [7] 0.158 | doramapimod 0.288 | ispinesib -0.182

IDI1 isoform 2 (UniProt Q13907)
inactive: filanesib 0.026 | zotarolimus 0.033 | idasanutlin -0.006 | alisertib -0.003 | [2] 0.007 | gefitinib 0.024 | [3] 0.039 | lapatinib -0.014 | pictilisib 0.089 | [4] 0.052 | crizotinib 0.093 | [5] 0.062 | [6] -0.018 | gandotinib 0.014 | [7] -0.028 | doramapimod -0.063 | ispinesib 0.045
active: [1] -0.314

IFT80 isoform 3 (UniProt Q9P2H3)
inactive: [1] -0.128 | filanesib -0.043 | zotarolimus 0.003 | idasanutlin -0.066 | alisertib -0.039 | [2] 0.01 | gefitinib -0.07 | [3] 0.04 | lapatinib -0.038 | pictilisib 0.034 | [4] -0.019 | crizotinib -0.01 | [5] 0.069 | [6] -0.031 | gandotinib 0.053 | [7] 0.05 | doramapimod 0.069 | ispinesib -0.051

IRF2BPL (UniProt Q9H1B7)
inactive: [1] 0.283 | filanesib -0.025 | zotarolimus 0.029 | idasanutlin 0.033 | alisertib 0.058 | [2] 0.015 | gefitinib -0.016 | [3] -0.027 | lapatinib -0.015 | pictilisib 0.071 | [4] -0.034 | crizotinib 0.133 | [5] 0.249 | [6] -0.005 | gandotinib -0.041 | [7] 0.066 | doramapimod -0.061 | ispinesib -0.083

ING1 (UniProt Q9UK53)
inactive: [1] -0.432 | filanesib 0.031 | zotarolimus 0.125 | idasanutlin 0.054 | alisertib -0.428 | [3] -0.193 | [4] 0.028 | crizotinib 0.131 | [6] -0.146 | tozasertib 0.05 | doramapimod 0.117

ILKAP (UniProt Q9H0C8)
inactive: [1] 0 | filanesib -0.016 | zotarolimus 0.03 | idasanutlin -0.06 | alisertib -0.13 | [2] 0.113 | gefitinib 0.032 | [3] -0.056 | lapatinib -0.029 | pictilisib -0.035 | [4] 0.008 | crizotinib 0.064 | [5] 0.174 | [6] -0.054 | gandotinib -0.061 | [7] 0.085 | doramapimod -0.055 | ispinesib 0.05

INTS2 (UniProt Q9H0H0)
inactive: [1] 0.013 | filanesib -0.003 | zotarolimus 0.126 | idasanutlin -0.034 | alisertib -0.014 | [2] -0.111 | [3] 0.139 | lapatinib -0.033 | pictilisib -0.08 | [4] 0.072 | crizotinib -0.126 | [5] -0.158 | [6] 0.065 | gandotinib 0.035 | tozasertib 0.096 | doramapimod 0 | ispinesib -0.032

IMMT isoform 2 (UniProt Q16891)
inactive: [1] 0.006 | filanesib -0.101 | zotarolimus -0.045 | idasanutlin 0.04 | alisertib -0.088 | [2] -0.25 | gefitinib -0.006 | [3] 0.017 | lapatinib -0.151 | pictilisib -0.238 | [4] -0.042 | crizotinib -0.152 | [5] 0.046 | [6] -0.115 | gandotinib -0.075 | [7] -0.087 | doramapimod -0.034 | ispinesib -0.031

ILK (UniProt Q13418)
inactive: filanesib 0.023 | zotarolimus -0.052 | idasanutlin 0.021 | alisertib 0.038 | [2] 0.036 | gefitinib 0.007 | [3] 0 | lapatinib -0.05 | pictilisib 0.068 | [4] 0.054 | crizotinib 0.038 | [5] -0.001 | [6] 0.046 | gandotinib -0.039 | [7] -0.046 | doramapimod -0.023 | ispinesib -0.153
active: [1] -0.444

ITM2B (UniProt Q9Y287)
inactive: [1] -0.109 | filanesib 0.092 | zotarolimus -0.042 | idasanutlin -0.03 | alisertib 0.083 | [2] -0.037 | gefitinib -0.047 | [3] 0.138 | lapatinib -0.116 | [4] 0.065 | crizotinib -0.193 | [5] -0.032 | [6] 0.038 | [7] -0.032 | doramapimod 0.043 | ispinesib 0.131

IRAK4 (UniProt Q9NWZ3)
inactive: [1] 0.012 | filanesib -0.028 | zotarolimus 0.01 | idasanutlin 0.004 | alisertib -0.059 | [2] 0.104 | gefitinib 0.109 | [3] 0.007 | lapatinib -0.004 | pictilisib -0.099 | [4] 0.034 | crizotinib -0.025 | [5] 0.003 | [6] 0.046 | gandotinib -0.107 | [7] 0.104 | doramapimod -0.047 | ispinesib -0.05

IK (UniProt Q13123)
inactive: [1] 0.056 | filanesib 0.156 | zotarolimus 0.007 | idasanutlin 0.102 | alisertib -0.044 | [2] 0.07 | gefitinib 0.027 | [3] -0.096 | lapatinib -0.008 | pictilisib -0.035 | [4] -0.041 | crizotinib 0.021 | [5] -0.037 | [6] 0.186 | gandotinib 0.022 | [7] -0.007 | doramapimod 0.016 | ispinesib 0.065

IFI30 (UniProt P13284)
inactive: [1] 0.04 | filanesib 0.061 | zotarolimus 0.06 | idasanutlin 0.027 | alisertib -0.11 | [2] -0.133 | gefitinib -0.035 | [3] 0.01 | lapatinib 0.147 | pictilisib -0.02 | [4] 0.013 | crizotinib -0.011 | [5] -0.083 | [6] -0.02 | gandotinib 0.042 | [7] 0.035 | doramapimod -0.044 | ispinesib 0.002

INF2 (UniProt Q27J81)
inactive: [1] 0.062 | filanesib 0.16 | zotarolimus -0.013 | idasanutlin 0.066 | alisertib -0.12 | gefitinib 0.154 | [3] -0.005 | [4] -0.012 | crizotinib -0.093 | [5] -0.211 | [6] 0.056 | duvelisib 0.001 | [7] -0.021 | doramapimod 0.049 | ispinesib -0.066

ISOC2 (UniProt Q96AB3)
inactive: [1] 0.16 | filanesib 0.061 | zotarolimus 0.072 | idasanutlin -0.028 | alisertib -0.04 | [2] -0.067 | gefitinib 0 | [3] 0.001 | lapatinib -0.002 | [4] 0.035 | crizotinib 0.023 | [5] 0.003 | [6] 0.275 | duvelisib -0.198 | tozasertib -0.052 | [7] 0.111 | doramapimod -0.019 | ispinesib 0.166

Taken from above (2 entries):
IFI30 (UniProt P13284)
inactive: [1] 0.04 | filanesib 0.061 | zotarolimus 0.06 | idasanutlin 0.027 | alisertib -0.11 | [2] -0.133 | gefitinib -0.035 | [3] 0.01 | lapatinib 0.147 | pictilisib -0.02 | [4] 0.013 | crizotinib -0.011 | [5] -0.083 | [6] -0.02 | gandotinib 0.042 | [7] 0.035 | doramapimod -0.044 | ispinesib 0.002

INF2 (UniProt Q27J81)
inactive: [1] 0.062 | filanesib 0.16 | zotarolimus -0.013 | idasanutlin 0.066 | alisertib -0.12 | gefitinib 0.154 | [3] -0.005 | [4] -0.012 | crizotinib -0.093 | [5] -0.211 | [6] 0.056 | duvelisib 0.001 | [7] -0.021 | doramapimod 0.049 | ispinesib -0.066
